From paper PMC6465732
Results are given in words; binding and its absence hold for the method and conditions named. Binding seen in cells or lysates may run through a third protein. A result given as binding can be weak or reduced; the word gives no strength. Where a sequence is shown, tags or fusion partners need not be part of it.

Target: HA-Dvl2 (Dishevelled 2)
Assay: co-IP; HEK293T cells co-transfected with tGFP-PTK7 (WT or variants) and HA-Dvl2 or HA-Vangl2; lysed in RIPA buffer 48 hr after transfection; anti-HA antibody with protein G beads overnight at 4°C; three washes with RIPA buffer; immunoblot with anti-tGFP or anti-HA

Binder | binding
tGFP-PTK7 p.Thr186Met (receptor, UniProt Q13308-1 31-1070) AIVFIKQPSSQDALQGRRALLRCEVEAPGPVHVYWLLDGAPVQDTERRFAQGSSLSFAAVDRLQDSGTFQCVARDDVTGEEARSANASFNIKWIEAGPVVLKHPASEAEIQPQTQVTLRCHIDGHPRPTYQWFRDGTPLSDGQSNHTVSSKERNLMLRPAGPEHSGLYSCCAHSAFGQACSSQNFTLSIADESFARVVLAPQDVVVARYEEAMFHCQFSAQPPPSLQWLFEDETPITNRSRPPHLRRATVFANGSLLLTQVRPRNAGIYRCIGQGQRGPPIILEATLHLAEIEDMPLFEPRVFTAGSEERVTCLPPKGLPEPSVWWEHAGVRLPTHGRVYQKGHELVLANIAESDAGVYTCHAANLAGQRRQDVNITVATVPSWLKKPQDSQLEEGKPGYLDCLTQATPKPTVVWYRNQMLISEDSRFEVFKNGTLRINSVEVYDGTWYRCMSSTPAGSIEAQARVQVLEKLKFTPPPQPQQCMEFDKEATVPCSATGREKPTIKWERADGSSLPEWVTDNAGTLHFARVTRDDAGNYTCIASNGPQGQIRAHVQLTVAVFITFKVEPERTTVYQGHTALLQCEAQGDPKPLIQWKGKDRILDPTKLGPRMHIFQNGSLVIHDVAPEDSGRYTCIAGNSCNIKHTEAPLYVVDKPVPEESEGPGSPPPYKMIQTIGLSVGAAVAYIIAVLGLMFYCKKRCKAKRLQKQPEGEEPEMECLNGGPLQNGQPSAEIQEEVALTSLGSGPAATNKRHSTSDKMHFPRSSLQPITTLGKSEFGEVFLAKAQGLEEGVAETLVLVKSLQSKDEQQQLDFRRELEMFGKLNHANVVRLLGLCREAEPHYMVLEYVDLGDLKQFLRISKSKDEKLKSQPLSTKQKVALCTQVALGMEHLSNNRFVHKDLAARNCLVSAQRQVKVSALGLSKDVYNSEYYHFRQAWVPLRWMSPEAILEGDFSTKSDVWAFGVLMWEVFTHGEMPHGGQADDEVLADLQAGKARLPQPEGCPSKLYRLMQRCWALSPKDRPSFSEIASALGDSTVDSKP | binds
tGFP-PTK7 p.Arg630Ser (receptor, UniProt Q13308-1 31-1070) AIVFIKQPSSQDALQGRRALLRCEVEAPGPVHVYWLLDGAPVQDTERRFAQGSSLSFAAVDRLQDSGTFQCVARDDVTGEEARSANASFNIKWIEAGPVVLKHPASEAEIQPQTQVTLRCHIDGHPRPTYQWFRDGTPLSDGQSNHTVSSKERNLTLRPAGPEHSGLYSCCAHSAFGQACSSQNFTLSIADESFARVVLAPQDVVVARYEEAMFHCQFSAQPPPSLQWLFEDETPITNRSRPPHLRRATVFANGSLLLTQVRPRNAGIYRCIGQGQRGPPIILEATLHLAEIEDMPLFEPRVFTAGSEERVTCLPPKGLPEPSVWWEHAGVRLPTHGRVYQKGHELVLANIAESDAGVYTCHAANLAGQRRQDVNITVATVPSWLKKPQDSQLEEGKPGYLDCLTQATPKPTVVWYRNQMLISEDSRFEVFKNGTLRINSVEVYDGTWYRCMSSTPAGSIEAQARVQVLEKLKFTPPPQPQQCMEFDKEATVPCSATGREKPTIKWERADGSSLPEWVTDNAGTLHFARVTRDDAGNYTCIASNGPQGQIRAHVQLTVAVFITFKVEPERTTVYQGHTALLQCEAQGDPKPLIQWKGKDSILDPTKLGPRMHIFQNGSLVIHDVAPEDSGRYTCIAGNSCNIKHTEAPLYVVDKPVPEESEGPGSPPPYKMIQTIGLSVGAAVAYIIAVLGLMFYCKKRCKAKRLQKQPEGEEPEMECLNGGPLQNGQPSAEIQEEVALTSLGSGPAATNKRHSTSDKMHFPRSSLQPITTLGKSEFGEVFLAKAQGLEEGVAETLVLVKSLQSKDEQQQLDFRRELEMFGKLNHANVVRLLGLCREAEPHYMVLEYVDLGDLKQFLRISKSKDEKLKSQPLSTKQKVALCTQVALGMEHLSNNRFVHKDLAARNCLVSAQRQVKVSALGLSKDVYNSEYYHFRQAWVPLRWMSPEAILEGDFSTKSDVWAFGVLMWEVFTHGEMPHGGQADDEVLADLQAGKARLPQPEGCPSKLYRLMQRCWALSPKDRPSFSEIASALGDSTVDSKP | binds
tGFP-PTK7 p.Tyr725Phe (receptor, UniProt Q13308-1 31-1070) AIVFIKQPSSQDALQGRRALLRCEVEAPGPVHVYWLLDGAPVQDTERRFAQGSSLSFAAVDRLQDSGTFQCVARDDVTGEEARSANASFNIKWIEAGPVVLKHPASEAEIQPQTQVTLRCHIDGHPRPTYQWFRDGTPLSDGQSNHTVSSKERNLTLRPAGPEHSGLYSCCAHSAFGQACSSQNFTLSIADESFARVVLAPQDVVVARYEEAMFHCQFSAQPPPSLQWLFEDETPITNRSRPPHLRRATVFANGSLLLTQVRPRNAGIYRCIGQGQRGPPIILEATLHLAEIEDMPLFEPRVFTAGSEERVTCLPPKGLPEPSVWWEHAGVRLPTHGRVYQKGHELVLANIAESDAGVYTCHAANLAGQRRQDVNITVATVPSWLKKPQDSQLEEGKPGYLDCLTQATPKPTVVWYRNQMLISEDSRFEVFKNGTLRINSVEVYDGTWYRCMSSTPAGSIEAQARVQVLEKLKFTPPPQPQQCMEFDKEATVPCSATGREKPTIKWERADGSSLPEWVTDNAGTLHFARVTRDDAGNYTCIASNGPQGQIRAHVQLTVAVFITFKVEPERTTVYQGHTALLQCEAQGDPKPLIQWKGKDRILDPTKLGPRMHIFQNGSLVIHDVAPEDSGRYTCIAGNSCNIKHTEAPLYVVDKPVPEESEGPGSPPPYKMIQTIGLSVGAAVAYIIAVLGLMFFCKKRCKAKRLQKQPEGEEPEMECLNGGPLQNGQPSAEIQEEVALTSLGSGPAATNKRHSTSDKMHFPRSSLQPITTLGKSEFGEVFLAKAQGLEEGVAETLVLVKSLQSKDEQQQLDFRRELEMFGKLNHANVVRLLGLCREAEPHYMVLEYVDLGDLKQFLRISKSKDEKLKSQPLSTKQKVALCTQVALGMEHLSNNRFVHKDLAARNCLVSAQRQVKVSALGLSKDVYNSEYYHFRQAWVPLRWMSPEAILEGDFSTKSDVWAFGVLMWEVFTHGEMPHGGQADDEVLADLQAGKARLPQPEGCPSKLYRLMQRCWALSPKDRPSFSEIASALGDSTVDSKP | binds
tGFP-PTK7 p.Arg271Cys (receptor, UniProt Q13308-1 31-1070) AIVFIKQPSSQDALQGRRALLRCEVEAPGPVHVYWLLDGAPVQDTERRFAQGSSLSFAAVDRLQDSGTFQCVARDDVTGEEARSANASFNIKWIEAGPVVLKHPASEAEIQPQTQVTLRCHIDGHPRPTYQWFRDGTPLSDGQSNHTVSSKERNLTLRPAGPEHSGLYSCCAHSAFGQACSSQNFTLSIADESFARVVLAPQDVVVARYEEAMFHCQFSAQPPPSLQWLFEDETPITNRSCPPHLRRATVFANGSLLLTQVRPRNAGIYRCIGQGQRGPPIILEATLHLAEIEDMPLFEPRVFTAGSEERVTCLPPKGLPEPSVWWEHAGVRLPTHGRVYQKGHELVLANIAESDAGVYTCHAANLAGQRRQDVNITVATVPSWLKKPQDSQLEEGKPGYLDCLTQATPKPTVVWYRNQMLISEDSRFEVFKNGTLRINSVEVYDGTWYRCMSSTPAGSIEAQARVQVLEKLKFTPPPQPQQCMEFDKEATVPCSATGREKPTIKWERADGSSLPEWVTDNAGTLHFARVTRDDAGNYTCIASNGPQGQIRAHVQLTVAVFITFKVEPERTTVYQGHTALLQCEAQGDPKPLIQWKGKDRILDPTKLGPRMHIFQNGSLVIHDVAPEDSGRYTCIAGNSCNIKHTEAPLYVVDKPVPEESEGPGSPPPYKMIQTIGLSVGAAVAYIIAVLGLMFYCKKRCKAKRLQKQPEGEEPEMECLNGGPLQNGQPSAEIQEEVALTSLGSGPAATNKRHSTSDKMHFPRSSLQPITTLGKSEFGEVFLAKAQGLEEGVAETLVLVKSLQSKDEQQQLDFRRELEMFGKLNHANVVRLLGLCREAEPHYMVLEYVDLGDLKQFLRISKSKDEKLKSQPLSTKQKVALCTQVALGMEHLSNNRFVHKDLAARNCLVSAQRQVKVSALGLSKDVYNSEYYHFRQAWVPLRWMSPEAILEGDFSTKSDVWAFGVLMWEVFTHGEMPHGGQADDEVLADLQAGKARLPQPEGCPSKLYRLMQRCWALSPKDRPSFSEIASALGDSTVDSKP | binds
tGFP-PTK7 p.Arg294His (receptor, UniProt Q13308-1 31-1070) AIVFIKQPSSQDALQGRRALLRCEVEAPGPVHVYWLLDGAPVQDTERRFAQGSSLSFAAVDRLQDSGTFQCVARDDVTGEEARSANASFNIKWIEAGPVVLKHPASEAEIQPQTQVTLRCHIDGHPRPTYQWFRDGTPLSDGQSNHTVSSKERNLTLRPAGPEHSGLYSCCAHSAFGQACSSQNFTLSIADESFARVVLAPQDVVVARYEEAMFHCQFSAQPPPSLQWLFEDETPITNRSRPPHLRRATVFANGSLLLTQVRPHNAGIYRCIGQGQRGPPIILEATLHLAEIEDMPLFEPRVFTAGSEERVTCLPPKGLPEPSVWWEHAGVRLPTHGRVYQKGHELVLANIAESDAGVYTCHAANLAGQRRQDVNITVATVPSWLKKPQDSQLEEGKPGYLDCLTQATPKPTVVWYRNQMLISEDSRFEVFKNGTLRINSVEVYDGTWYRCMSSTPAGSIEAQARVQVLEKLKFTPPPQPQQCMEFDKEATVPCSATGREKPTIKWERADGSSLPEWVTDNAGTLHFARVTRDDAGNYTCIASNGPQGQIRAHVQLTVAVFITFKVEPERTTVYQGHTALLQCEAQGDPKPLIQWKGKDRILDPTKLGPRMHIFQNGSLVIHDVAPEDSGRYTCIAGNSCNIKHTEAPLYVVDKPVPEESEGPGSPPPYKMIQTIGLSVGAAVAYIIAVLGLMFYCKKRCKAKRLQKQPEGEEPEMECLNGGPLQNGQPSAEIQEEVALTSLGSGPAATNKRHSTSDKMHFPRSSLQPITTLGKSEFGEVFLAKAQGLEEGVAETLVLVKSLQSKDEQQQLDFRRELEMFGKLNHANVVRLLGLCREAEPHYMVLEYVDLGDLKQFLRISKSKDEKLKSQPLSTKQKVALCTQVALGMEHLSNNRFVHKDLAARNCLVSAQRQVKVSALGLSKDVYNSEYYHFRQAWVPLRWMSPEAILEGDFSTKSDVWAFGVLMWEVFTHGEMPHGGQADDEVLADLQAGKARLPQPEGCPSKLYRLMQRCWALSPKDRPSFSEIASALGDSTVDSKP | binds
tGFP-PTK7 p.Ala856Thr (receptor, UniProt Q13308-1 31-1070) AIVFIKQPSSQDALQGRRALLRCEVEAPGPVHVYWLLDGAPVQDTERRFAQGSSLSFAAVDRLQDSGTFQCVARDDVTGEEARSANASFNIKWIEAGPVVLKHPASEAEIQPQTQVTLRCHIDGHPRPTYQWFRDGTPLSDGQSNHTVSSKERNLTLRPAGPEHSGLYSCCAHSAFGQACSSQNFTLSIADESFARVVLAPQDVVVARYEEAMFHCQFSAQPPPSLQWLFEDETPITNRSRPPHLRRATVFANGSLLLTQVRPRNAGIYRCIGQGQRGPPIILEATLHLAEIEDMPLFEPRVFTAGSEERVTCLPPKGLPEPSVWWEHAGVRLPTHGRVYQKGHELVLANIAESDAGVYTCHAANLAGQRRQDVNITVATVPSWLKKPQDSQLEEGKPGYLDCLTQATPKPTVVWYRNQMLISEDSRFEVFKNGTLRINSVEVYDGTWYRCMSSTPAGSIEAQARVQVLEKLKFTPPPQPQQCMEFDKEATVPCSATGREKPTIKWERADGSSLPEWVTDNAGTLHFARVTRDDAGNYTCIASNGPQGQIRAHVQLTVAVFITFKVEPERTTVYQGHTALLQCEAQGDPKPLIQWKGKDRILDPTKLGPRMHIFQNGSLVIHDVAPEDSGRYTCIAGNSCNIKHTEAPLYVVDKPVPEESEGPGSPPPYKMIQTIGLSVGAAVAYIIAVLGLMFYCKKRCKAKRLQKQPEGEEPEMECLNGGPLQNGQPSAEIQEEVALTSLGSGPAATNKRHSTSDKMHFPRSSLQPITTLGKSEFGEVFLAKAQGLEEGVAETLVLVKSLQSKDEQQQLDFRRELEMFGKLNHTNVVRLLGLCREAEPHYMVLEYVDLGDLKQFLRISKSKDEKLKSQPLSTKQKVALCTQVALGMEHLSNNRFVHKDLAARNCLVSAQRQVKVSALGLSKDVYNSEYYHFRQAWVPLRWMSPEAILEGDFSTKSDVWAFGVLMWEVFTHGEMPHGGQADDEVLADLQAGKARLPQPEGCPSKLYRLMQRCWALSPKDRPSFSEIASALGDSTVDSKP | binds
